Assay results published in PubChem BioAssay AID504842 (National Center for Advancing Translational Sciences (NCATS), 2011).
In all, about 330,000 compounds went through this assay and about 100 (0.03%) were called active. This list was built around the results that the source calls inconclusive (neither active nor inactive); the mix of calls is not that of the screen. Calls follow the shape of the dose curve; as a rule, active = well fitted inhibition curve with a large enough effect; inconclusive = small, poorly fitted or top-dose-only effect; inactive = flat fitted curve, though single readings scatter. Potencies of inconclusive entries are doubtful fits and often do not repeat.

Each compound was assayed on Chaperonin Mm-Cpn (Methanococcus maripaludis) (assay: Inhibitors of TCP-1 ring complex (TRiC) of Methanococcus maripaludis (MmCpn): qHTS). Conditions: purified Mm-Cpn ATPase, ADP Transcreener TR-FRET; series mostly up to 76.9 µM.
In short: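 ATPase read-out: TR-FRET ADP immunoassay (anti-ADP Eu cryptate vs ADP-d2), ex 320 nm, em 590/665 nm; signal drops as ADP forms. Enzyme 25 nM, ATP 10 uM, 30 min at 37°C after 10 min compound preincubation.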
Also: nearly all actives have a fitted effect of over 80% in size.
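For Potency in this document: enzyme at 25 nM with ATP substrate at 10 µM during the reaction.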
Potency is read from the fitted curve at half-maximal effect.

| SMILES | Potency |
| --- | --- |
| O=C(Nc1ccc(S(=O)(=O)N2CCOCC2)cc1)c1ccccc1Br | inconclusive: 25.1 µM [inhibitor, partial curve, poor fit] |
| COc1ccccc1/C=N/NC(=O)CC(=O)NCc1ccccc1 | inconclusive: 22.4 µM [inhibitor, single point] |
| COc1ccc(/C=C(\C#N)C(=O)Nc2cc(S(=O)(=O)N3CCOCC3)ccc2N2CCCC2)cc1 | inconclusive: 79.4 µM [inhibitor, single point] |
| CC1(C)Oc2cc(N)c([N+](=O)[O-])cc2O1 | inactive |
| COc1ccc(-c2csc3ncn(Cc4ccccc4)c(=O)c23)cc1 | inconclusive: 89.1 µM [inhibitor, partial curve, poor fit] |
| Cc1ccc(SCCNC(=O)c2ccc(C)c([N+](=O)[O-])c2)cc1 | inactive |
| Cc1ccc(NC(=S)N2CCC(c3ccccc3)C2)c(Cl)c1 (configuration not stated) | inconclusive: 20 µM [inhibitor, single point] |
| Cc1ccc(C)c2[nH]c(=O)c(CN(Cc3cccs3)C(=S)NCc3ccco3)cc12 | inconclusive: 100 µM [inhibitor, single point] |
| Cc1cc(C)c(C)c(S(=O)(=O)N2CCN(CC(=O)Nc3sccc3C#N)CC2)c1C | inconclusive: 79.4 µM [inhibitor, partial curve] |
| O=C1CCCCCN1Cc1ccccc1 | inconclusive: 22.4 µM [inhibitor, single point] |
| O=C(NCCN1CCOCC1)c1ccccc1OCc1ccccc1 | inconclusive: 14.1 µM [inhibitor, partial curve, poor fit] |
| O=C(Cc1c(Cl)cccc1Cl)Nc1cccc(S(=O)(=O)N2CCOCC2)c1 | inconclusive: 63.1 µM [inhibitor, single point] |
| Cc1ccc2nc(N3C(=O)C(O)=C(C(=O)c4ccc(C)o4)C3c3ccco3)sc2c1 (configuration not stated) | inconclusive: 112 µM [inhibitor, partial curve] |
| Cc1ccc(C2=NN(S(C)(=O)=O)C(c3ccc4nccnc4c3)C2)cc1 (configuration not stated) | inconclusive: 31.6 µM [inhibitor, single point] |
| COc1ccc(C2CC(c3cccs3)=NN2C(=O)CSc2nc(=O)n3ccccc3n2)cc1 (configuration not stated) | inconclusive: 79.4 µM [inhibitor, single point] |
| Fc1ccc(CSc2nc3ccccc3[nH]2)cc1 | inconclusive: 25.1 µM [inhibitor, single point] |
| CC(C)(CSc1nncn1/N=C/c1ccco1)NS(=O)(=O)c1ccc(Cl)cc1 | inconclusive: 70.8 µM [inhibitor, single point] |
| COc1ccc(NC(=O)Nc2ccccc2F)c(C)c1 | inconclusive: 63.1 µM [inhibitor, single point] |
| Cc1occc1C(=O)N/N=C/c1ccc(OCc2ccccc2)cc1 | inactive |
| COc1ccc2cc3c(N)c(C(=O)NCc4ccco4)sc3nc2c1 | inconclusive: 200 µM [inhibitor, partial curve, poor fit] |
| COc1ccccc1OP(=O)(O)Oc1ccccc1OC | inconclusive: 25.1 µM [inhibitor, single point] |
| CCOc1ccc(N(CC(=O)N2CCCC2)S(=O)(=O)c2ccc(F)cc2)cc1 | inconclusive: 22.4 µM [inhibitor, single point] |
| N=c1n(CCN2CCCCC2)c2ccccc2n1CC(O)c1ccco1 (configuration not stated) | inconclusive: 89.1 µM [inhibitor, single point] |

| SMILES | Potency |
| --- | --- |
| CCCSc1nc(N)c(C#N)c(-c2ccc(C)cc2)c1C#N | inconclusive: 100 µM [inhibitor, single point] |
| O=C(CN1C(=O)C2C3C=CC(C3)C2C1=O)NCCc1ccccc1 (configuration not stated) | inconclusive: 70.8 µM [inhibitor, single point] |
| COc1cc2ncnc(NCc3ccccc3Cl)c2cc1OC | inconclusive: 79.4 µM [inhibitor, single point] |
| O=C1/C(=C/c2ccc(Cl)cc2)SC(=S)N1CCC(=O)N1CCCCC1CCO (configuration not stated) | inconclusive: 20 µM [inhibitor, single point] |
| CC(=O)c1sc(NC(=O)C2COc3ccccc3O2)nc1C (configuration not stated) | inconclusive: 355 µM [inhibitor, partial curve, poor fit] |
| CC(=O)Nc1ccccc1OCC(=O)NCCc1ccc(Cl)cc1Cl | inactive |
| COc1ccc(-c2csc(NC(=O)c3ccc(N4C(=O)CCC4=O)cc3)n2)cc1 | inconclusive: 20 µM [inhibitor, single point] |
| O=C(O)Cn1c(=S)sc2ccccc21 | inconclusive: 31.6 µM [inhibitor, single point] |
| COCCN(CCOC)C(=O)c1cc2sc3ccccc3c2s1 | inactive |
| CCOC(=O)c1ccc(NC(=O)NNS(=O)(=O)c2cc(OC)ccc2OC)cc1 | inconclusive: 20 µM [inhibitor, single point] |
| CC(C)CNC(=O)C1CCN(S(=O)(=O)c2ccc(-n3cnnn3)cc2)CC1 | inconclusive: 22.4 µM [inhibitor, single point] |
| O=C(CSc1nnc(NC(=O)c2ccco2)s1)NCc1ccc2c(c1)OCO2 | inconclusive: 63.1 µM [inhibitor, partial curve, poor fit] |
| O=C(O)CC1CCC(=C(Cl)Cl)C1 (configuration not stated) | inactive |
| Cc1cc(NC(=O)C2C3C(=O)N(Cc4ccc(Cl)cc4)C(C(=O)NC(C)(C)C)C34C=CC2(C)O4)no1 (configuration not stated) | inconclusive: 70.8 µM [inhibitor, single point] |
| CCC(C)n1c(-c2cc(OC)c(OC)c(OC)c2)nc2nc3ccccc3nc21 (configuration not stated) | inconclusive: 44.7 µM [inhibitor, single point] |
| COc1ccc(-c2nnc(-c3ccc(Br)o3)o2)cc1OC | inconclusive: 126 µM [inhibitor, partial curve, poor fit] |
| Cc1cc(C)c2nc(NCCCNC(=S)NCCCN(C)C)c(C#N)cc2c1 | inconclusive: 15.8 µM [inhibitor, single point] |
| CS(=O)(=O)N1CCN(c2ccccc2NC(=O)c2ccc(-c3ccc(Br)cc3)o2)CC1 | inconclusive: 158 µM [inhibitor, partial curve, poor fit] |
| CCOc1ccccc1NC(=O)C(OC(=O)c1ccccc1NS(=O)(=O)c1cccs1)c1ccccc1 (configuration not stated) | inconclusive: 89.1 µM [inhibitor, single point] |
| COc1ccc(-c2noc(N3CCC(C(=O)NCCCN4CCCC(C)C4)CC3)n2)cc1 (configuration not stated) | inconclusive: 50.1 µM [inhibitor, single point] |
| c1ccc(-c2noc(-c3ccco3)n2)nc1 | inactive |
| COc1ccc(N2CC(NC(=O)NCC(C)C)CC2=O)cc1 (configuration not stated) | inconclusive: 56.2 µM [inhibitor, single point] |
| COC(=O)c1ccc(NC(=O)c2c(Br)cnn2C)cc1 | inactive |

Part of the list above in order of molecular weight, ascending:

| SMILES | Potency |
| --- | --- |
| O=C(O)CC1CCC(=C(Cl)Cl)C1 (configuration not stated) | inactive |
| c1ccc(-c2noc(-c3ccco3)n2)nc1 | inactive |
| O=C(O)Cn1c(=S)sc2ccccc21 | inconclusive: 31.6 µM [inhibitor, single point] |
| COc1ccc(N2CC(NC(=O)NCC(C)C)CC2=O)cc1 (configuration not stated) | inconclusive: 56.2 µM [inhibitor, single point] |
| CCCSc1nc(N)c(C#N)c(-c2ccc(C)cc2)c1C#N | inconclusive: 100 µM [inhibitor, single point] |
| CC(=O)c1sc(NC(=O)C2COc3ccccc3O2)nc1C (configuration not stated) | inconclusive: 355 µM [inhibitor, partial curve, poor fit] |
| O=C(CN1C(=O)C2C3C=CC(C3)C2C1=O)NCCc1ccccc1 (configuration not stated) | inconclusive: 70.8 µM [inhibitor, single point] |
| COc1cc2ncnc(NCc3ccccc3Cl)c2cc1OC | inconclusive: 79.4 µM [inhibitor, single point] |
| COC(=O)c1ccc(NC(=O)c2c(Br)cnn2C)cc1 | inactive |
| COCCN(CCOC)C(=O)c1cc2sc3ccccc3c2s1 | inactive |
| COc1ccc(-c2nnc(-c3ccc(Br)o3)o2)cc1OC | inconclusive: 126 µM [inhibitor, partial curve, poor fit] |
| CC(=O)Nc1ccccc1OCC(=O)NCCc1ccc(Cl)cc1Cl | inactive |
| CC(C)CNC(=O)C1CCN(S(=O)(=O)c2ccc(-n3cnnn3)cc2)CC1 | inconclusive: 22.4 µM [inhibitor, single point] |
| Cc1cc(C)c2nc(NCCCNC(=S)NCCCN(C)C)c(C#N)cc2c1 | inconclusive: 15.8 µM [inhibitor, single point] |
| COc1ccc(-c2csc(NC(=O)c3ccc(N4C(=O)CCC4=O)cc3)n2)cc1 | inconclusive: 20 µM [inhibitor, single point] |
| O=C(CSc1nnc(NC(=O)c2ccco2)s1)NCc1ccc2c(c1)OCO2 | inconclusive: 63.1 µM [inhibitor, partial curve, poor fit] |
| CCOC(=O)c1ccc(NC(=O)NNS(=O)(=O)c2cc(OC)ccc2OC)cc1 | inconclusive: 20 µM [inhibitor, single point] |
| COc1ccc(-c2noc(N3CCC(C(=O)NCCCN4CCCC(C)C4)CC3)n2)cc1 (configuration not stated) | inconclusive: 50.1 µM [inhibitor, single point] |
| CS(=O)(=O)N1CCN(c2ccccc2NC(=O)c2ccc(-c3ccc(Br)cc3)o2)CC1 | inconclusive: 158 µM [inhibitor, partial curve, poor fit] |
| Cc1cc(NC(=O)C2C3C(=O)N(Cc4ccc(Cl)cc4)C(C(=O)NC(C)(C)C)C34C=CC2(C)O4)no1 (configuration not stated) | inconclusive: 70.8 µM [inhibitor, single point] |

Next entries.

| SMILES | Potency |
| --- | --- |
| CC(=O)c1c(C)[nH]c(C(=O)CSc2nnc(-c3cccs3)n2Cc2ccccc2)c1C | inconclusive: 89.1 µM [inhibitor, single point] |
| CCOC(=O)c1c(NC(=O)CC2Nc3cc(C)c(C)cc3NC2=O)sc(C)c1C (configuration not stated) | inconclusive: 56.2 µM [inhibitor, single point] |
| CCC(=O)Oc1ccc(C(CC)C(CC)c2ccc(OC(=O)CC)cc2)cc1 (configuration not stated) | inconclusive: 22.4 µM [inhibitor, single point] |
| CN1/C(=C\C(=O)COC(=O)CNC(=O)c2ccc3ccccc3c2)C(C)(C)c2ccccc21 | inconclusive: 63.1 µM [inhibitor, single point] |
| CSCCC(N=C1NS(=O)(=O)c2ccccc21)C(=O)N1CCCC(C(N)=O)C1 (configuration not stated) | inactive |
| COc1ccc(NC(=O)CN(C)CC(=O)Nc2ccccc2SC)cc1 | inconclusive: 100 µM [inhibitor, single point] |
| Cc1cc(C(=O)O)c(CCCN)s1 | inconclusive: 100 µM [inhibitor, single point] |
| CS(=O)(=O)c1cccc(C(=O)Nc2ccc(-c3nc4ccccc4[nH]3)cc2)c1 | inconclusive: 12.6 µM [inhibitor, single point] |
| CCOC(=O)c1ccccc1NC(=O)c1cn(CC)c2nc(C)ccc2c1=O | inactive |
| CCCCNCc1ccc(SC)cc1 | inconclusive: 100 µM [inhibitor, single point] |
| O=C(N/N=C/c1ccc(N2CCCC2)c([N+](=O)[O-])c1)c1cccnc1 | inactive |
| Cc1cc(C)c(OCCCON2C(=O)CCC2=O)c(Br)c1 | inconclusive: 12.6 µM [inhibitor, partial curve, poor fit] |
| CCOc1ccc(-n2c(-c3ccccc3)c[n+]3c2CCCCC3)cc1 | inconclusive: 79.4 µM [inhibitor, single point] |
| CSc1ccccc1OCc1cc(C(=O)NCCC2=CCCCC2)no1 | inactive |
| CCCc1nc2ccccc2c(=O)n1/N=C/c1ccccc1O | inactive |
| CCOC(=O)N1CCN(C/C(Cl)=C/c2ccccc2)CC1 | inconclusive: 79.4 µM [inhibitor, single point] |
| COc1ccc(CC(=O)Nc2nc(C)cs2)cc1 | inactive |
| COc1ccc2c(c1)C(=O)C(=O)N2CC1COc2ccccc2O1 (configuration not stated) | inconclusive: 79.4 µM [inhibitor, partial curve] |
| Cc1ccc(S(=O)(=O)NCCn2c(C)cc3ccccc32)cc1 | inconclusive: 79.4 µM [inhibitor, single point] |
| CC(C)CCNC(=S)Nc1ccc(Br)cc1 | inconclusive: 56.2 µM [inhibitor, single point] |
| O=C(Nc1nc(-c2ccc(S(=O)(=O)N3CCCCCC3)cc2)cs1)c1ccccc1 | active: 35.5 µM |
